We go through 25 compounds from PubChem BioAssay AID330 (DTP/NCI, 2004).

In the test the test system is P388 leukemia ip, CD2F1 mice, survival T/C. Kind of test: NCI In Vivo Anticancer Drug Screen. Data for tumor model P388 Leukemia (intraperitoneal) in CD2F1 (CDF1) mice. The note with it: T/C endpoint: median survival time, higher T/C = longer survival.
Setting [1] is: dose: 400.0 mg/kg/injection, schedule: Q01DX009 (ip), vehicle: saline with Tween-80.
The mark [2] stands for this setting: dose: 200.0 mg/kg/injection, schedule: Q01DX009 (ip), vehicle: Klucel (hydroxypropylcellulose) (HPC).
[3] abbreviates: dose: 12.5 mg/kg/injection, schedule: Q01DX009 (ip), vehicle: saline with Tween-80.
Where [4] appears, read: dose: 25.0 mg/kg/injection, schedule: Q01DX009 (ip), vehicle: saline with Tween-80.
The mark [5] stands for this setting: dose: 50.0 mg/kg/injection, schedule: Q01DX009 (ip), vehicle: saline with Tween-80.
[6] abbreviates: dose: 100.0 mg/kg/injection, schedule: Q01DX009 (ip), vehicle: distilled water + Tween-80.
[7] abbreviates: dose: 100.0 mg/kg/injection, schedule: Q01DX009 (ip), vehicle: saline with Tween-80.
The mark [8] stands for this setting: dose: 200.0 mg/kg/injection, schedule: Q01DX009 (ip), vehicle: distilled water + Tween-80.
Setting [9] is: dose: 200.0 mg/kg/injection, schedule: Q01DX009 (ip), vehicle: saline with Tween-80.
The mark [10] stands for this setting: dose: 100.0 mg/kg/injection, schedule: Q01DX009 (ip), vehicle: saline.
The mark [11] stands for this setting: dose: 200.0 mg/kg/injection, schedule: Q01DX009 (ip), vehicle: saline.
Setting [12] is: dose: 100.0 mg/kg/injection, schedule: Q01DX009 (ip), vehicle: Klucel (hydroxypropylcellulose) (HPC).
The mark [13] stands for this setting: dose: 25.0 mg/kg/injection, schedule: Q01DX009 (ip), vehicle: distilled water + Tween-80.

The list is a part of this screen's results and no random one: it is rich in T/C values a quarter to a half above the control, in often repeated tests (any T/C) and in doses without a T/C. Other doses and runs of a compound stand elsewhere. T/C: endpoint of the treated group in % of that of the vehicle group. Some entries give survivors of the animals treated and no T/C: the source holds a T/C of zero for them, seemingly a mark for toxic or unscored doses. Some doses without a T/C left all or most animals alive at the check, yet need not have been tolerated: the source hardly ever lists a survival T/C far under the control, and the zero likely stands for such cases as well. Survivors were counted at the toxicity check, usually on the fifth day, unless a day is given; later deaths do not show. Schedules are NCI's codes, read here as Q, the interval in days (D) or hours (H), X, the number of doses. Some entries were tested several times; the results are listed from low to high. Where survival is the endpoint, the PubChem record calls one and a half times the control and up active, and a quarter to a half above the control has no call in these data; cut-offs in other NCI protocols can differ. Some T/C values carry the count of animals alive at the toxicity check (mostly the fifth day); where none is given, no animal had died by that day. Additions like (4×) say how often a value occurs here.

For the compound `O=C(Nc1ccc(C2=NCCN2)cc1)c1cc2cc(C3=NCCN3)ccc2o1`, the survivor count reads like this: (dose: 100.0 mg/kg/injection, schedule: Q04DX003 (ip), vehicle: suspension in saline) 2 of 6; (dose: 200.0 mg/kg/injection, schedule: Q04DX003 (ip), vehicle: suspension in saline) 2 of 6; (dose: 400.0 mg/kg/injection, schedule: Q04DX003 (ip), vehicle: suspension in saline) 0 of 6.
For `O=C1CSC(=S)N1c1ccco1`, the survivor count under setting [1] is given as 3 of 6.
On to `C[N-]N(C)C(=O)[S-].C[N-]N(C)C(=O)[S-].C[N-]N(C)C(=O)[S-].[Co]`, for which the survivor count (dose: 100.0 mg/kg/injection, schedule: Q04DX003 (ip), vehicle: saline with Tween-80) was 5 of 6.
Take `COC1=CC(=Nc2ccc(N(CCCl)CCCl)cc2)C=CC1=O`: for the setting “dose: 12.5 mg/kg/injection, schedule: Q01DX009 (ip), vehicle: Klucel (hydroxypropylcellulose) (HPC)”, the T/C was 133 % of control. Moreover, under setting [2], the survivor count is given as 2 of 6.
On to `CN(C)CCSc1nc2ccccc2s1`, for which the survivor count (dose: 240.0 mg/kg/injection, schedule: Q01DX005 (ip), vehicle: saline) is listed as 2 of 6.
Consider `O=C(N/N=C\c1cc(Br)cc(Br)c1O)N/N=C/c1cc(Br)cc(Br)c1O`, for which the T/C is 97, 100 (2×), 105 (2×), 153 % of control under setting [3]; 99, 103, 106, 123, 127, 146, 154 % of control under setting [4]; 133 % of control (dose: 40.0 mg/kg/injection, schedule: Q01DX005 (ip), vehicle: suspension in saline); 107, 109, 133, 138, 139, 143, 145 % of control under setting [5]; 137 % of control (dose: 80.0 mg/kg/injection, schedule: Q01DX005 (ip), vehicle: suspension in saline); 143 % of control under setting [6]. Besides, the T/C was 123, 136, 138, 139, 154 (2×), 158 % of control under setting [7]; 136 % of control [5 of 6 alive] under setting [8]; 132, 140, 142, 150, 168 % of control under setting [9]; 126, 132, 140 [4 of 5 alive], 189 % of control under setting [1]. Besides, the survivor count runs as follows: under setting [9], 5 of 5 and 6 of 6; (dose: 280.0 mg/kg/injection, schedule: Q01DX005 (iv), vehicle: suspension in saline) 0 of 6; under setting [1], 6 of 6.
Regarding `CC/C(=C(\c1ccccc1)c1ccc(OCCN(C)C)cc1)c1ccccc1`, the survivor count (dose: 200.0 mg/kg/injection, schedule: Q01DX009 (ip), vehicle: suspension in saline) was 4 of 6 and the survivor count (dose: 400.0 mg/kg/injection, schedule: Q01DX009 (ip), vehicle: suspension in saline) is given as 0 of 6.
As for `SC1(S)CN2CCC1CC2`, the survivor count (dose: 25.0 mg/kg/injection, schedule: Q01DX009 (ip), vehicle: saline) is reported as 2 of 6.
`COc1ccc(CN2CCc3cc(OC)c(O)cc3C2)cc1O`: under “dose: 400.0 mg/kg/injection, schedule: Q01DX001 (ip), vehicle: saline with Tween-80”, the survivor count was 0 of 6.
As for `C=CCN(C#N)CC=C`, the survivor count is recorded as 2 of 6 under setting [10] and 0 of 6 under setting [11].
Regarding `CC(=O)ON(C(C)=O)c1ccc(C(=O)OC2(C)CC(C)(C)[N+]([O-])=N2)cc1` (configuration not stated) (tested in a mixture with another compound), the survivor count (dose: 100.0 mg/kg/injection, schedule: Q01DX009 (ip), vehicle: water) is 6 of 6.
In the case of `CN=C(N)N/N=C(\C)c1ccc2oc3ccc(/C(C)=N/NC(N)=NC)cc3c2c1`, the T/C (dose: 6.25 mg/kg/injection, schedule: Q04DX002 (ip), vehicle: saline with Tween-80) is 127 % of control; the T/C (dose: 12.5 mg/kg/injection, schedule: Q04DX002 (ip), vehicle: saline with Tween-80) is 136 % of control; the T/C (dose: 25.0 mg/kg/injection, schedule: Q04DX002 (ip), vehicle: saline with Tween-80) is 137 % of control; the T/C (dose: 50.0 mg/kg/injection, schedule: Q04DX002 (ip), vehicle: saline with Tween-80) was 148 % of control; the T/C (dose: 100.0 mg/kg/injection, schedule: Q04DX002 (ip), vehicle: saline with Tween-80) was 146 % of control.
For the compound `CCN(CC)CCN(CC)c1ccc(/C=C/c2ccnc3ccccc23)cc1`, the survivor count reads like this: under setting [12], 0 of 6; under setting [2], 0 of 6; (dose: 400.0 mg/kg/injection, schedule: Q01DX009 (ip), vehicle: Klucel (hydroxypropylcellulose) (HPC)) 0 of 6.
`O=C1CN(Cc2ccc3c(c2)OCO3)NO1`: under setting [7], the T/C was 128 % of control.
As for `COC[N+](C)(C)c1ccc(/C=C/C=O)cc1`, the survivor count reads like this: under setting [10], 4 of 6; under setting [11], 0 of 6.
Turning to `Cc1cc(Cl)ccc1N=C(N)N`, the survivor count is recorded as 3 of 5 under setting [7] and 0 of 6 under setting [9].
With `CC(=O)Oc1c([N+](=O)[O-])cccc1[N+](=O)[O-]`, under setting [13], the T/C was 126 % of control [5 of 6 alive]. The survivor count was 4 of 6 under setting [13]; 3 of 6 (dose: 50.0 mg/kg/injection, schedule: Q01DX009 (ip), vehicle: clinical formulation); 3 of 6 (dose: 50.0 mg/kg/injection, schedule: Q01DX009 (ip), vehicle: distilled water + Tween-80); 2 of 6 (dose: 100.0 mg/kg/injection, schedule: Q01DX009 (ip), vehicle: clinical formulation); 1 of 6 under setting [6]; 0 of 6 under setting [8]. Moreover, the survivor count (dose: 400.0 mg/kg/injection, schedule: Q01DX009 (ip), vehicle: distilled water + Tween-80) is recorded as 0 of 6.
Regarding `COc1cc(OC)cc(-c2n[se]c(-c3cc(OC)cc(OC)c3)n2)c1`, the survivor count is, setting by setting: (dose: 3.12 mg/kg/injection, schedule: Q01DX009 (ip), vehicle: saline with Tween-80) 6 of 6; (dose: 6.25 mg/kg/injection, schedule: Q01DX009 (ip), vehicle: saline with Tween-80) 6 of 6; under setting [3], 5 of 6; under setting [4], 6 of 6; under setting [5], 6 of 6; under setting [7], 6 of 6. Besides, the survivor count under setting [9] was 5 of 6.
For the compound `CCN(CC)Cc1c(O)c(N=Nc2cccc3ccccc23)cc2ccccc12`, the survivor count was 6 of 6 (dose: 25.0 mg/kg/injection, schedule: Q01DX009 (ip), vehicle: Klucel (hydroxypropylcellulose) (HPC)); 0 of 6 and 3 of 6 (dose: 50.0 mg/kg/injection, schedule: Q01DX009 (ip), vehicle: Klucel (hydroxypropylcellulose) (HPC)); 0 of 6 under setting [12]; 0 of 6 under setting [2].
`CC(=O)/C=C(\C)Nc1ccccc1`: under setting [10], the survivor count is 5 of 6.
For the compound `CN1C(=O)C(=CN(C)c2ccccc2)C(=O)N(C)C1=O`, the survivor count reads like this: (dose: 200.0 mg/kg/injection, schedule: Q04DX003 (ip), vehicle: saline with Tween-80) 3 of 6; (dose: 400.0 mg/kg/injection, schedule: Q04DX003 (ip), vehicle: saline with Tween-80) 0 of 6.
Regarding `O=C(Cc1n[nH]c(=S)nc1CC(=O)c1cccnc1)c1cccnc1`, where the note is “dose: 240.0 mg/kg/injection, schedule: Q01DX005 (ip), vehicle: saline with Tween-80”, the survivor count is reported as 0 of 6.
On to `CC(=O)c1c(N)n(C)c(=O)n(C)c1=O`, for which the survivor count was 2 of 6 under setting [3]; 0 of 6 under setting [4]; 0 of 6 under setting [5]; 3 of 6 under setting [7]; 2 of 6 under setting [9].
On to `C[S+](C)c1ccccc1NC(C)(C)C`, for which the survivor count by setting is: (dose: 50.0 mg/kg/injection, schedule: Q01DX009 (ip), vehicle: saline) 3 of 6; under setting [10], 2 of 6.
In the case of `C#CC(=O)OCC#CCOC(=O)C#C`, the survivor count (dose: 12.0 mg/kg/injection, schedule: Q01DX009 (ip), vehicle: saline with Tween-80) is given as 1 of 6.
